{"source": "PubChem BioAssay AID504808, Drosophila RNAi Screening Center – 2011", "purpose": "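Chromatin factors that keep E2F targets switched off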 (primary screen)", "cell system": "Drosophila S2 cells", "reagents": "long dsRNA against Drosophila genes", "detection": "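Dual luciferase plate measurements; E2F-specific signal taken as firefly over Renilla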", "direction": "E2F firefly: higher = more E2F reporter activity; Renilla normaliser: higher = more normaliser reporter signal", "rule for the call": "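Called active if the normalised E2F reporter went up by over 50%; the cutoff is arbitrary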", "note": "The screen tested about 21,000 reagents; below is a random part of those that have a named target and a result. In the full data, 18 (0.084%) got an active call. 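Raw counts without plate normalisation, one of two replicates; the ratio scores behind the calls were not deposited.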 Unmarked entries are inactive. The record does not give: the amount of reagent, the time to read-out."}
{"target gene": "CG12341", "amplicon": "DRSC06133", "E2F firefly, rep 1": 1.58e5, "Renilla normaliser, rep 1": 4447}
{"target gene": "GstD7", "amplicon": "DRSC16688", "E2F firefly, rep 1": 1.38e5, "Renilla normaliser, rep 1": 6101}
{"target gene": "bbc", "amplicon": "DRSC06958", "E2F firefly, rep 1": 72453, "Renilla normaliser, rep 1": 4429}
{"target gene": "CG9691", "amplicon": "DRSC18441", "E2F firefly, rep 1": 1.19e5, "Renilla normaliser, rep 1": 6426}
{"target gene": "CG15043", "amplicon": "DRSC19619", "E2F firefly, rep 1": 2.20e5, "Renilla normaliser, rep 1": 5626}
{"target gene": "mahj", "amplicon": "DRSC04053", "E2F firefly, rep 1": 72071, "Renilla normaliser, rep 1": 4120}
{"target gene": "Sid", "amplicon": "DRSC16588", "E2F firefly, rep 1": 1.16e5, "Renilla normaliser, rep 1": 6931}
{"target gene": "Pp2B-14D", "amplicon": "DRSC20270", "E2F firefly, rep 1": 2.81e5, "Renilla normaliser, rep 1": 7927}
{"target gene": "bdl", "amplicon": "DRSC00271", "E2F firefly, rep 1": 87451, "Renilla normaliser, rep 1": 3741}
{"target gene": "CG9775", "amplicon": "DRSC12330", "E2F firefly, rep 1": 77126, "Renilla normaliser, rep 1": 3514}
{"target gene": "GckIII", "amplicon": "DRSC15729", "E2F firefly, rep 1": 93543, "Renilla normaliser, rep 1": 6189}
{"target gene": "Nrx-1", "amplicon": "DRSC16184", "E2F firefly, rep 1": 67495, "Renilla normaliser, rep 1": 2690}
{"target gene": "CG4017", "amplicon": "DRSC02733", "E2F firefly, rep 1": 1.46e5, "Renilla normaliser, rep 1": 5068}
{"target gene": "CG14767", "amplicon": "DRSC06500", "E2F firefly, rep 1": 2976, "Renilla normaliser, rep 1": 200}
{"target gene": "a", "amplicon": "DRSC04667", "E2F firefly, rep 1": 86726, "Renilla normaliser, rep 1": 4029}
{"target gene": "a", "amplicon": "DRSC04668", "E2F firefly, rep 1": 1.00e5, "Renilla normaliser, rep 1": 4189}
{"target gene": "ScsbetaG", "amplicon": "DRSC11294", "E2F firefly, rep 1": 82726, "Renilla normaliser, rep 1": 3827}
{"target gene": "Alg9", "amplicon": "DRSC14407", "E2F firefly, rep 1": 65950, "Renilla normaliser, rep 1": 3271}
{"target gene": "eIF3c", "amplicon": "DRSC06905", "E2F firefly, rep 1": 1.11e5, "Renilla normaliser, rep 1": 5535}
{"target gene": "CG42544", "amplicon": "DRSC12451", "E2F firefly, rep 1": 69289, "Renilla normaliser, rep 1": 4174}
{"target gene": "Vps24", "amplicon": "DRSC12332", "E2F firefly, rep 1": 71566, "Renilla normaliser, rep 1": 4088}
{"target gene": "CG31265", "amplicon": "DRSC15745", "E2F firefly, rep 1": 1.19e5, "Renilla normaliser, rep 1": 6718}
{"target gene": "ben", "amplicon": "DRSC20310", "E2F firefly, rep 1": 8853, "Renilla normaliser, rep 1": 816}
{"target gene": "ben", "amplicon": "DRSC21261", "E2F firefly, rep 1": 1.43e5, "Renilla normaliser, rep 1": 333}
{"target gene": "Rab40", "amplicon": "DRSC19820", "E2F firefly, rep 1": 1.18e5, "Renilla normaliser, rep 1": 6078}
{"target gene": "Psf2", "amplicon": "DRSC00516", "E2F firefly, rep 1": 1.21e5, "Renilla normaliser, rep 1": 4364}
{"target gene": "CG12547", "amplicon": "DRSC07759", "E2F firefly, rep 1": 97324, "Renilla normaliser, rep 1": 4146}
{"target gene": "Marf", "amplicon": "DRSC18329", "E2F firefly, rep 1": 7677, "Renilla normaliser, rep 1": 812}
{"target gene": "CG30122", "amplicon": "DRSC06776", "E2F firefly, rep 1": 66334, "Renilla normaliser, rep 1": 3591}
{"target gene": "CG30122", "amplicon": "DRSC06935", "E2F firefly, rep 1": 1.60e5, "Renilla normaliser, rep 1": 5270}
{"target gene": "CG32246", "amplicon": "DRSC08115", "E2F firefly, rep 1": 1.23e5, "Renilla normaliser, rep 1": 4040}
{"target gene": "Orc4", "amplicon": "DRSC04634", "E2F firefly, rep 1": 88175, "Renilla normaliser, rep 1": 2990}
{"target gene": "Edg91", "amplicon": "DRSC16657", "E2F firefly, rep 1": 88344, "Renilla normaliser, rep 1": 4935}
{"target gene": "Mgat4a", "amplicon": "DRSC09326", "E2F firefly, rep 1": 1.25e5, "Renilla normaliser, rep 1": 4368}
{"target gene": "Mgat4a", "amplicon": "DRSC11070", "E2F firefly, rep 1": 1.47e5, "Renilla normaliser, rep 1": 7703}
{"target gene": "nvy", "amplicon": "DRSC04705", "E2F firefly, rep 1": 92536, "Renilla normaliser, rep 1": 3347}

Individual results from the entries so far.
For “Renilla normaliser, rep 1”, bdl [DRSC00271] is entered as 3741
For “Renilla normaliser, rep 1”, GckIII [DRSC15729] reads 6189
nvy [DRSC04705], Renilla normaliser, rep 1: 3347
Entry of Nrx-1 [DRSC16184] in “Renilla normaliser, rep 1”: 2690
CG42544 [DRSC12451], E2F firefly, rep 1: 69289
